Source: US12128053B2 (Woolsey Pharmaceuticals, Inc., priority 2022, dated 2024)

Assay: Tasting of fasudil formulations (bitterness rank, palatability) by subjects / panel of tasters
Type: in vivo, human
Settings: for Rank# (Bitterness rank): agent added to 3.0 mL fasudil 16 mg/mL stock (Formulation 35A), rank 1 to 10, 10 being most bitter; for taste of the drug: drug itself / fasudil solutions

NCC(=O)O [Glycine]
Rank# (Bitterness rank): 2

CC(O)COC[C@H]1O[C@@H]2O[C@H]3[C@H](O)[C@@H](O)[C@@H](O[C@H]4[C@H](O)[C@@H](O)[C@@H](O[C@H]5[C@H](O)[C@@H](O)[C@@H](O[C@H]6[C@H](O)[C@@H](O)[C@@H](O[C@H]7[C@H](O)[C@@H](O)[C@@H](O[C@H]8[C@H](O)[C@@H](O)[C@@H](O[C@H]1[C@H](O)[C@H]2O)O[C@@H]8COCC(C)O)O[C@@H]7COCC(C)O)O[C@@H]6COCC(C)O)O[C@@H]5COCC(C)O)O[C@@H]4COCC(C)O)O[C@@H]3COCC(C)O (some centres unmarked) [HPBCD, Hydroxypropyl betacyclodexrin]
Rank# (Bitterness rank): 7

CC1CCC(C(C)C)C(O)C1 (centres unmarked) [Menthol]
Rank# (Bitterness rank): 7

Cl.O=S(=O)(c1cccc2cnccc12)N1CCCNCC1 [fasudil, hexahydro-1-(5-isoquinolinesulfonyl)-1H-1,4-diazepine monohydrochloride hemihydrate]
taste of the drug (listed as fasudil hydrochloride, monohydrochloride hemihydrate): highly aversive numbing and bitter taste
taste of the drug (monohydrochloride hemihydrate): very aversive, bitter taste

O=S(=O)(c1cccc2c(O)nccc12)N1CCCNCC1 [hydroxyfasudil]
taste of the drug: highly aversive numbing and bitter taste

Sulfobutyl ether betacyclodextrin [SBEBCD]
Rank (bitterness) (Table 8: five amounts of agent (about 50-210 mg) in about 2 g stock solution, same rank for all): 3
Rank# (Bitterness rank): 3
